Experimental data reported in patent publication US5911990A, “T-cell receptor peptides and methods for preventing the progression to AIDS in an animal model” (Arizona Board of Regents on Behalf of the University of …, priority 1996, dated 1999).
At least one peptide structure holds a part that was inferred or is arguable (an end, a ring closure or a residue). Ends that are not written are not given here.

How the values were obtained:
Format in all cases: in vivo
C57B1/6 mice = test: ELISA for AAb to TCR-β and MCG3 (serum IgG titers); conditions: for Mean ELISA titers against the target TCR Vβ CDR1 peptide: peptide 200 μg/mouse i.p.
LP-BM5-infected mice [1] = test: ELISA for IgG detection, LPS-stimulated splenocytes; conditions: for IgG production by LPS-stimulated splenocytes: administration before infection
LP-BM5-infected mice [2] = test: Mitogenesis of splenocytes, [3H]-thymidine incorporation (Example 1)
LP-BM5-infected mice [3] = test: Natural Killer (NK) cell cytotoxicity (Example 2)
LP-BM5-infected mice [4] = test: ELISA for cytokines produced by mitogen-stimulated splenocytes (Example 1); conditions: for IL-5 release by Con A-stimulated splenocytes / IL-10 release by Con A-stimulated splenocytes: administration before infection; for IFN-γ release by Con A-stimulated splenocytes / IL-2 release by Con A-stimulated splenocytes: administration before infection (days -7 and -3, 200 μg/mouse i.p.); for Th2 cell output of IL-5 / Th2 cell output of IL-6: immunization after retrovirus infection
LP-BM5-infected mice [5] = test: Natural Killer (NK) cell cytotoxicity, YAC-1 target cells (Example 1)
LP-BM5-infected mice [6] = test: ELISA for cytokines produced by mitogen-stimulated splenocytes (Example 2)
LP-BM5-infected mice [7] = test: Lymphocyte subpopulation measurement of IL-2R+ cells; conditions: immunization after retrovirus inoculation
LP-BM5-infected mice [8] = test: Mitogenesis of splenocytes (Example 2)
[9] = administration before infection
[10] = doses of 5, 25, and 100 μg/mouse after infection, 16 wk after retrovirus infection
[11] = doses of 5 and 25 μg/mouse in the presence of adjuvant
[12] = higher doses, 200 and 500 μg/mouse, after infection
[13] = immunization after retrovirus inoculation
[14] = injection after retrovirus infection
[15] = 200 μg/mouse or higher dose and before 6-weeks postinfection
[16] = above 100 μg/mouse and 4 weeks postinfection
[17] = less than 100 μg/mouse or after 4-weeks postinfection
[18] = less than 200 μg/mouse or after 6-weeks postinfection
[19] = peptide injection, overall, compared with infected, unimmunized mice
[20] = dosages above 200 μg/mouse and injection before 4 weeks postinfection
[21] = less than 200 μg/mouse or at 6-10 weeks postinfection

## CKPISGHNSLFWYRQT [TCR Vβ CDR1 peptide, Cys Lys Pro Ile Ser Gly His Asn Ser Leu Phe Trp Tyr Arg Gln Thr]
C57B1/6 mice; LP-BM5-infected mice
  Mean ELISA titers against the target TCR Vβ CDR1 peptide: did not result in a significant increase
C57B1/6 mice; LP-BM5-infected mice, listed as TCR
  Mean ELISA titers against the target TCR Vβ CDR1 peptide: 2075
C57B1/6 mice; uninfected mice (Medium)
  Mean ELISA titers against the target TCR Vβ CDR1 peptide: 175
LP-BM5-infected mice [1]
  IgG production by LPS-stimulated splenocytes: significantly (p<0.05) reduced
LP-BM5-infected mice [1]; injection after infection
  IgG synthesis in vitro: prevented elevation
LP-BM5-infected mice [2]; [9]
  7 cell proliferation in response to mitogens: significantly (p<0.05) normalized
  B cell proliferation in response to mitogens: prevented the retrovirus-induced suppression of B cell proliferation, but this was not statistically significant
LP-BM5-infected mice [2]; [10]
  B cell mitogenesis in vitro: prevented only some loss
  T cell mitogenesis in vitro: did not prevent loss
LP-BM5-infected mice [2]; [11]
  capacity for B cell mitogenesis in retrovirally infected mice: improved
  capacity for T cell mitogenesis in retrovirally infected mice: improved
LP-BM5-infected mice [2]; [12]
  B cell mitogenesis in vitro: increased
  T cell mitogenesis in vitro: increased
LP-BM5-infected mice [2]; [13]
  B cell mitogenesis: prevented the loss
  T cell mitogenesis: prevented the loss
LP-BM5-infected mice [2]; immunization at increasingly longer times postinfection than 2 wk
  B cell mitogenesis in vitro: prevented less of the loss
LP-BM5-infected mice [2]; peptide injected with adjuvant, poly(a)U or Ribi, 16 wk of retrovirus infection
  T cell mitogenesis: similarly affected
LP-BM5-infected mice [2]; peptide injected with either of two adjuvants, poly(a)U or Ribi
  B cell proliferation in vitro: higher than that in mice injected with the peptide only or saline
LP-BM5-infected mice [3]; dosages above 100 μg/mouse and injection by 4 weeks postinfection
  NK cell activity: maintained near-normal
LP-BM5-infected mice [3]; less than 100 μg/mouse at or after 6-weeks postinfection
  NK cell cytotoxicity: permitted development of a significantly decreased
LP-BM5-infected mice [3]; peptide injection, overall
  splenic NK cell activity: largely (P<0.05) maintained
LP-BM5-infected mice [4]
  IL-5 release by Con A-stimulated splenocytes: significantly reduced
  IL-10 release by Con A-stimulated splenocytes: significantly reduced
  IFN-γ release by Con A-stimulated splenocytes: significantly (p<0.05) normalized
  IL-2 release by Con A-stimulated splenocytes: significantly (p<0.05) normalized
  Th2 cell output of IL-5: significantly prevented from developing their increased output
  Th2 cell output of IL-6: significantly prevented from developing their increased output
LP-BM5-infected mice [4]; injection after infection
  monocyte cytokine production of IL-6: prevented elevation
  monocyte cytokine production of TNF: prevented elevation
LP-BM5-infected mice [4]; [14]
  IFN-γ produced by splenocytes stimulated in vitro with mitogens: largely prevented the loss
  IL-2 produced by splenocytes stimulated in vitro with mitogens: largely prevented the loss
LP-BM5-infected mice [4]; retrovirus-infected mice
  TNF-α release by LPS-stimulated splenocytes: significantly (p<0.05) inhibited
LP-BM5-infected mice [5]; [9]
  NK cell activity: significantly (p<0.05) normalized
LP-BM5-infected mice [5]; [13]
  NK cell activity: prevented
LP-BM5-infected mice [6]; [15]
  Th1 cytokine production (IFN-γ): maintained near-normal
  Th1 cytokine production (IL-2): maintained near-normal
LP-BM5-infected mice [6]; [16]
  Th2 cytokine production (IL-6): maintained near-normal
  Th2 cytokine production (IL-10): maintained near-normal
LP-BM5-infected mice [6]; [17]
  Th2 cytokine production (IL-6): permitted development of a significantly (P<0.05) increased
  Th2 cytokine production (IL-10): permitted development of a significantly (P<0.05) increased
LP-BM5-infected mice [6]; [18]
  Th1 cytokine production (IFN-γ): significantly (P<0.05) decreased
  Th1 cytokine production (IL-2): significantly (P<0.05) decreased
LP-BM5-infected mice [6]; peptide injection, overall
  IL-6 release by mitogen-stimulated splenocytes: significantly (P<0.05) normalized
  IL-10 release by mitogen-stimulated splenocytes: significantly (P<0.05) normalized
LP-BM5-infected mice [6]; [19]
  IFN-γ release by mitogen-stimulated splenocytes: significantly (P<0.05) normalized
  IL-2 release by mitogen-stimulated splenocytes: significantly (P<0.05) normalized
LP-BM5-infected mice [7]
  activated T cells, IL-2R+: somewhat prevented an increase
LP-BM5-infected mice [8]; [20]
  B-cell proliferation: maintained near normal
  T-cell proliferation: maintained near normal
LP-BM5-infected mice [8]; [21]
  in vitro proliferation of mitogen-stimulated B cells: did not prevent development of decreased, in vitro proliferation
  in vitro proliferation of mitogen-stimulated T cells: did not prevent development of decreased, in vitro proliferation
LP-BM5-infected mice [8]; peptide injection, overall
  Suppression of B-cell proliferation in the spleen induced by retrovirus infection: significantly (P<0.05) prevented
  Suppression of T-cell proliferation in the spleen induced by retrovirus infection: significantly (P<0.05) prevented

## TGTSSDVGGYNYVSWY [MCG3, Thr Gly Thr Ser Ser Asp Val Gly Gly Tyr Asn Tyr Val Ser Trp Tyr, reference compound]
C57B1/6 mice; LP-BM5-infected mice
  Mean ELISA titers against the target TCR Vβ CDR1 peptide: 921
C57B1/6 mice; sera of all treatment groups
  ELISA titers to the MCG3 peptide: did not detect any positive titers
C57B1/6 mice; uninfected mice (Medium)
  Mean ELISA titers against the target TCR Vβ CDR1 peptide: 443
LP-BM5-infected mice [1]
  IgG production by LPS-stimulated splenocytes: did not
LP-BM5-infected mice [2]; [9]
  7 cell proliferation in response to mitogens: did not
LP-BM5-infected mice [4]
  IL-5 release by Con A-stimulated splenocytes: did not
  IL-10 release by Con A-stimulated splenocytes: did not
  IFN-γ release by Con A-stimulated splenocytes: did not
  IL-2 release by Con A-stimulated splenocytes: did not
  Th2 cell output of IL-5: not
  Th2 cell output of IL-6: not
LP-BM5-infected mice [5]; [9]
  NK cell activity: did not
